Experimental data as given in PubChem BioAssay AID282 (DTP/NCI, 2004).
The list is a part of this screen's results and no random one: it gathers tests that were run many times, whatever their T/C, doses with no T/C, and many T/C values between a quarter and a half above the control. Further doses and runs are listed elsewhere. T/C: endpoint of the treated group in % of that of the vehicle group. Some doses have a count of surviving animals in place of a T/C: the source files T/C as zero there, which appears to mark a toxic dose or a test without result, not a measured value. Some doses without a T/C left all or most animals alive at the check, yet need not have been tolerated: survival well below the control is almost never listed, so the zero probably covers shortened survival too. Survivors were counted at the toxicity check, usually on the fifth day, unless a day is given; later deaths do not show. Schedules are NCI's codes, read here as Q, the interval in days (D) or hours (H), X, the number of doses. Some doses were run more than once; the results are listed from low to high. Some schedules carry Z or #; the key to these is not given. For survival time, the PubChem record calls one and a half times the control and up active, and a quarter to a half above the control has no call in these data; cut-offs in other NCI protocols can differ. Signs of the kind (2×) count equal records among those shown. Some T/C values carry the count of animals alive at the toxicity check (mostly the fifth day); without a count, all were alive then.

Test system: BDF1 mice, L1210 terephthalanilide-resistant leukemia ip, survival T/C
Test: NCI In Vivo Anticancer Drug Screen. Data for tumor model L1210 Leukemia resistant to A Terephthalanilide; NSC 38280 (intraperitoneal) in B6D2F1 (BDF1) mice
Conditions: T/C endpoint: mean survival time, higher T/C = longer survival
Description: The antitumor activity of compounds was measured in mice bearing transplantable tumors. Survival or tumor size were measured and the results are expressed as the measurement made in the treated group (T) divided by the measurement made in the vehicle treated control group (C). The tumor model used in this assay is L1210 Leukemia resistant to A Terephthalanilide; NSC 38280 (intraperitoneal) in B6D2F1 (BDF1) mice

[1] = dose: 300.0 mg/kg/injection, schedule: Q01DX Z (ip), vehicle: water
[2] = dose: 40.0 mg/kg/injection, schedule: Q01DX010 (ip), vehicle: saline
[3] = dose: 50.0 mg/kg/injection, schedule: Q01DX Z (ip), vehicle: carboxymethylcellulose (CMC)
[4] = dose: 200.0 mg/kg/injection, schedule: Q01DX Z (ip), vehicle: carboxymethylcellulose (CMC)
[5] = dose: 1.0 mg/kg/injection, schedule: Q01DX010 (ip), vehicle: saline
[6] = dose: 7.5 mg/kg/injection, schedule: Q01DX Z (ip), vehicle: carboxymethylcellulose (CMC)
[7] = dose: 250.0 mg/kg/injection, schedule: Q01DX Z (ip), vehicle: carboxymethylcellulose (CMC)

Nc1nc2n[nH]nc2c(=O)[nH]1
T/C (dose: 25.0 mg/kg/injection, schedule: Q01DX010 (ip), vehicle: alkali diluted with saline): 127 and 133 % of control | T/C (dose: 25.0 mg/kg/injection, schedule: Q01DX Z (ip), vehicle: water): 131 % of control | T/C (dose: 50.0 mg/kg/injection, schedule: Q01DX010 (ip), vehicle: alkali diluted with saline): 136 % of control (2×) | T/C (dose: 50.0 mg/kg/injection, schedule: Q01DX Z (ip), vehicle: water): 137 % of control | T/C (dose: 100.0 mg/kg/injection, schedule: Q01DX010 (ip), vehicle: alkali diluted with saline): 143 and 144 % of control | T/C (dose: 100.0 mg/kg/injection, schedule: Q01DX Z (ip), vehicle: water): 137 % of control | T/C (dose: 200.0 mg/kg/injection, schedule: Q01DX010 (ip), vehicle: alkali diluted with saline): 141 and 144 % of control | T/C (dose: 200.0 mg/kg/injection, schedule: Q01DX Z (ip), vehicle: water): 129 % of control | T/C [1]: 130 % of control | survivor count [1]: 5 of 6 | survivor count (dose: 400.0 mg/kg/injection, schedule: Q01DX Z (ip), vehicle: water): 3 of 6 | survivor count (dose: 600.0 mg/kg/injection, schedule: Q01DX Z (ip), vehicle: water): 0 of 6 | survivor count (dose: 750.0 mg/kg/injection, schedule: Q01DX Z (ip), vehicle: water): 0 of 6

CCOC(N)=O
survivor count (dose: 1000.0 mg/kg/injection, schedule: Q01DX010 (ip), vehicle: saline): 4 of 6 and 5 of 6 | survivor count (dose: 1500.0 mg/kg/injection, schedule: Q01DX Z (ip), vehicle: saline): 1 of 6 | survivor count (dose: 2000.0 mg/kg/injection, schedule: Q01DX Z (ip), vehicle: saline): 0 of 6

C[C@@H]1C[C@@H]([C@H](O)CC2CC(=O)NC(=O)C2)C(=O)[C@@H](C)C1
T/C [2]: 130 % of control

Nc1ncnc2[nH]ncc12
survivor count (dose: 12.0 mg/kg/injection, schedule: Q01DX010 (ip), vehicle: saline): 6 of 6 | T/C (dose: 18.0 mg/kg/injection, schedule: Q01DX Z (ip), vehicle: carboxymethylcellulose (CMC)): 137 % of control | survivor count (dose: 37.5 mg/kg/injection, schedule: Q01DX Z (ip), vehicle: carboxymethylcellulose (CMC)): 5 of 6 | survivor count [3]: 5 of 6

O=c1[nH]c(=O)n(C2CC(O)C(CO)O2)cc1F (stereo unspecified)
T/C [2]: 129 % of control | survivor count (dose: 80.0 mg/kg/injection, schedule: Q01DX010 (ip), vehicle: saline): 6 of 6 | survivor count (dose: 160.0 mg/kg/injection, schedule: Q01DX010 (ip), vehicle: saline): 6 of 6 | T/C (dose: 200.0 mg/kg/injection, schedule: Q01DX Z (ip), vehicle: saline): 135 % of control | T/C (dose: 250.0 mg/kg/injection, schedule: Q01DX Z (ip), vehicle: saline): 129 % of control

COc1cc(-c2ccc(Nc3ccccc3C(=O)O)c(OC)c2)ccc1Nc1ccccc1C(=O)O
T/C (dose: 30.0 mg/kg/injection, schedule: Q01DX010 (ip), vehicle: saline): 131 % of control | T/C (dose: 45.0 mg/kg/injection, schedule: Q01DX010 (ip), vehicle: saline): 130 and 144 % of control | survivor count (dose: 150.0 mg/kg/injection, schedule: Q01DX010 (ip), vehicle: saline): 4 of 6

NC(Cc1ccc(N(CCCl)CCCl)cc1)C(=O)O (stereo unspecified)
T/C (dose: 1.25 mg/kg/injection, schedule: Q01DX Z (ip), vehicle: carboxymethylcellulose (CMC)): 148 % of control | T/C (dose: 3.0 mg/kg/injection, schedule: Q01DX Z (ip), vehicle: carboxymethylcellulose (CMC)): 147 % of control | T/C (dose: 6.0 mg/kg/injection, schedule: Q01DX Z (ip), vehicle: carboxymethylcellulose (CMC)): 141 % of control | T/C (dose: 10.0 mg/kg/injection, schedule: Q01DX010 (ip), vehicle: saline): 132 % of control | survivor count (dose: 20.0 mg/kg/injection, schedule: Q01DX010 (ip), vehicle: saline): 5 of 6

CN(C)C(=S)N=Nc1c(O)[nH]c2ccccc12
survivor count [4]: 5 of 6

N#Cc1cn(C2OC(CO)C(O)C2O)c2ncnc(N)c12 (stereo unspecified)
survivor count (dose: 250.0 micrograms/kg/injection, schedule: Q01DX010 (ip), vehicle: saline): 6 of 6

O=CN(O)CC(=O)O
survivor count (dose: 62.5 mg/kg/injection, schedule: Q01DX010 (ip), vehicle: saline): 6 of 6

Nc1nc(=S)c2ncn(C3OC(CO)C(O)C3O)c2[nH]1 (stereo unspecified)
T/C (dose: 0.2 mg/kg/injection, schedule: Q01DX Z (ip), vehicle: carboxymethylcellulose (CMC)): 135 % of control | T/C (dose: 0.45 mg/kg/injection, schedule: Q01DX Z (ip), vehicle: carboxymethylcellulose (CMC)): 129 % of control | T/C (dose: 0.5 mg/kg/injection, schedule: Q01DX010 (ip), vehicle: saline): 125 % of control | T/C (dose: 0.62 mg/kg/injection, schedule: Q01DX Z (ip), vehicle: carboxymethylcellulose (CMC)): 143 % of control | T/C [5]: 136 % of control [5 of 6 alive] | T/C [6]: 139 % of control | T/C (dose: 10.0 mg/kg/injection, schedule: Q01DX Z (ip), vehicle: carboxymethylcellulose (CMC)): 138 % of control | survivor count (dose: 16.0 mg/kg/injection, schedule: Q01DX010 (ip), vehicle: saline): 6 of 6

CSc1ncnc2nc[nH]c12
survivor count [7]: 1 of 6

C#CCN(C)Cc1ccccc1
survivor count (dose: 400.0 mg/kg/injection, schedule: Q01DX010 (ip), vehicle: saline): 3 of 6

C1CN1c1nc(N2CC2)nc(N2CC2)n1
survivor count [5]: 6 of 6

CCn1cnc2c(=S)nc[nH]c21
T/C [3]: 136 % of control | survivor count [4]: 6 of 6 | survivor count (dose: 250.0 mg/kg/injection, schedule: Q01DX010 (ip), vehicle: saline): 3 of 6

Cn1cnc([N+](=O)[O-])c1Sc1nc(N)nc2nc[nH]c12
T/C (dose: 1.0 mg/kg/injection, schedule: Q01DX Z (ip), vehicle: carboxymethylcellulose (CMC)): 125 % of control | T/C (dose: 4.0 mg/kg/injection, schedule: Q01DX Z (ip), vehicle: carboxymethylcellulose (CMC)): 147 % of control | T/C (dose: 5.0 mg/kg/injection, schedule: Q01DX Z (ip), vehicle: carboxymethylcellulose (CMC)): 141 % of control | T/C [6]: 129 % of control

O=C(Nc1ccc(C2=NCCCN2)cc1)c1ccc(NC(=O)c2ccc(C3=NCCCN3)cc2)cc1
T/C (dose: 4.0 mg/kg/injection, schedule: Q01DX010 (ip), vehicle: other): 128 % of control | T/C (dose: 8.0 mg/kg/injection, schedule: Q01DX010 (ip), vehicle: other): 132 % of control | survivor count (dose: 16.0 mg/kg/injection, schedule: Q01DX010 (ip), vehicle: other): 5 of 6 | survivor count (dose: 32.0 mg/kg/injection, schedule: Q01DX010 (ip), vehicle: other): 0 of 6

CS(=O)(=O)OCCC(=O)N1CCN(C(=O)CCOS(C)(=O)=O)CC1
T/C (dose: 25.0 mg/kg/injection, schedule: Q01DX010 (ip), vehicle: saline): 131 % of control | T/C (dose: 50.0 mg/kg/injection, schedule: Q01DX010 (ip), vehicle: saline): 138 % of control | survivor count (dose: 100.0 mg/kg/injection, schedule: Q01DX010 (ip), vehicle: saline): 5 of 6

CC(=O)Nc1ccc2nc3ccc(NC(C)=O)cc3[n+](-c3ccccc3)c2c1
T/C (dose: 25.0 mg/kg/injection, schedule: Q01DX Z (ip), vehicle: carboxymethylcellulose (CMC)): 125 % of control | T/C [3]: 138 % of control | T/C (dose: 75.0 mg/kg/injection, schedule: Q01DX Z (ip), vehicle: carboxymethylcellulose (CMC)): 136 % of control | T/C (dose: 100.0 mg/kg/injection, schedule: Q01DX Z (ip), vehicle: carboxymethylcellulose (CMC)): 127 % of control | T/C (dose: 200.0 mg/kg/injection, schedule: Q01DX010 (ip), vehicle: saline): 130 % of control | survivor count (dose: 600.0 mg/kg/injection, schedule: Q01DX Z (ip), vehicle: carboxymethylcellulose (CMC)): 6 of 6

O=c1[nH]c(=O)n(C2CC(O)C(CO)O2)cc1I (stereo unspecified)
T/C (dose: 62.5 mg/kg/injection, schedule: Q01DX Z (ip), vehicle: carboxymethylcellulose (CMC)): 129 % of control | T/C (dose: 125.0 mg/kg/injection, schedule: Q01DX Z (ip), vehicle: carboxymethylcellulose (CMC)): 141 % of control | T/C [7]: 144 % of control
